Data from PubChem BioAssay AID1347076 (National Center for Advancing Translational Sciences (NCATS), 2019).
Hit rate of the full screen: of about 400,000 compounds, about 13,000 (3.2%) were called active. Inconclusive results, whose numbers are uncertain, are shown with a selection of clear calls. The call rests on the fitted dose curve; in most records, active means well fitted cell-killing curve with a large enough effect; inconclusive means small, poorly fitted or top-dose-only effect, or effect the other way; inactive means flat fitted curve, though single readings scatter. Where the call is inconclusive, the potency comes from a doubtful curve fit.

Assay: qHTS assay for MDR1-selective chemotherapeutics: Primary screen using the drug-selected MDR subline cells KB-V1; further: nearly all actives have a fitted effect of over 60% in size
Conditions: KB-V1 MDR cells viability, CellTiter-Glo, 72 h; activity change, negative = cytotoxicity: at 46.1 µM (top of the series)
Procedure, shortened: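 Compound-treated KB-V1 multidrug-resistant cells, 72 h, 37 degrees C; viability by CellTiter-Glo. Fitted qHTS curves give the values.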
On the % scale 0 is the no-effect control and ±100 the full control effect; potency means the concentration at half of the fitted maximal effect.

SMILES	Potency	activity change, negative = cytotoxicity
Cc1cc(C)c2nc(N3CCC(C(=O)N4CCN(c5ncccn5)CC4)CC3)sc2c1	inactive	–
COc1ccccc1N1CCN(CC(=O)NCC2CCCO2)CC1 (centres undefined)	inconclusive: 29.1 µM [rising, single point]	–
COc1cc(NC(=O)NCC2CCN(Cc3ccc(C)cc3)CC2)cc(OC)c1OC	inconclusive: 18.4 µM [rising, single point]	–
COCCn1c(C)cc(C2=NNC(=Nc3ccc(OC)cc3)SC2)c1C	inconclusive: 20.6 µM [cytotoxic, single point]	–
O=C(CNCc1cccs1)NC12CC3CC(CC(C3)C1)C2	inconclusive: 7.31 µM [cytotoxic, partial curve, poor fit]	–
CO[C@H]1C=CO[C@@]2(C)Oc3c(C)c(O)c4c(O)c(c(C=NN5CCN(C)CC5)c(O)c4c3C2=O)NC(=O)C(C)=CC=C[C@H](C)[C@H](O)[C@@H](C)[C@@H](O)[C@@H](C)[C@H](OC(C)=O)[C@@H]1C	inactive	–
CCN(CCO)Cc1csc2ccc(Cl)cc12	inactive	–
CCc1ccc(C(=O)COC(=O)c2cccc(N3C(=O)c4c(C)nc5ccccc5c4C3=O)c2)cc1	inconclusive: 18.4 µM [rising, single point]	–
O=c1[nH]c(=S)[nH]c2c1C(c1ccc(Cl)cc1)OC(CCc1ccccc1)C2 (centres undefined)	inactive	–
C=C(C)CNC(=O)c1ccc(OC2CCN(C(=O)COC)CC2)cc1	–	inconclusive: 10.2%
CCCSc1nc2cc(OC)c(OC)cc2c(=N)n1CCCN1CCOCC1	inconclusive: 2.91 µM [cytotoxic, partial curve]	–
Cc1ccc(CN2CCCn3nc(C(=O)NCc4cc(C)ccc4C)cc3C2=O)cc1	inactive	–
Cc1ccc(C(=O)Nc2nnc(S(=O)(=O)N3CCN(c4ccc(F)cc4)CC3)s2)cc1	inconclusive: 29.1 µM [cytotoxic, single point]	–
COc1ccccc1OCCN(C#N)c1nc(N(C)C)nc(N(C)C)n1	inactive	–
COCCCNC(=O)c1cnn(-c2ccc(F)cc2F)c1C1CCNCC1	inactive	–
Clc1ccc(Cl)c(OCCCCN2CCCCC2)c1	inactive	–
CCc1ccc(/C=N\n2cnnc2)cc1	inconclusive: 29.1 µM [cytotoxic, single point]	–
COc1cc(NC(=O)c2cc(Cl)ccc2Cl)ccc1-c1cc2ccccc2oc1=O	inconclusive: 1.3 µM [cytotoxic, partial curve, poor fit]	–
CC(C(=O)Nc1ccc([N+](=O)[O-])cc1)N1CCN(C/C=C/c2ccccc2)CC1 (centres undefined)	inconclusive: 2.59 µM [cytotoxic, partial curve]	–
COc1ccc(NC(=O)CN(C)C(=O)c2c(C)nn(Cc3ccc(C)cc3)c2Cl)cc1	inactive	–
COc1ccc(OC)c(NC(=O)Nc2nc(C(N)c3ccccc3Cl)cs2)c1 (centres undefined)	inactive	–
COCc1cc(C)nc(Nc2ccccc2C)c1C#N	inconclusive: 11.6 µM [cytotoxic, partial curve]	–

SMILES	Potency	activity change, negative = cytotoxicity
C[C@]12c3[nH]c4cc(-c5ccco5)ccc4c3CCN1C(=O)[C@@H](CC(=O)NCc1ccco1)C[C@@H]2C(=O)N1CCCCC1	inconclusive: 29.1 µM [cytotoxic, single point]	–
CC(=O)c1cc(F)c(N2CCOCC2)cc1C	inconclusive: 29.1 µM [cytotoxic, partial curve, poor fit]	–
O=C1C2C3CCC(CC3)C2C(=O)N1c1ccccc1 (centres undefined)	inactive	–
CCNC(=O)CSc1nc2cc([N+](=O)[O-])ccc2n1-c1cccc(C(F)(F)F)c1	inactive	–
O=C(Cc1n[nH]c(=O)c2ccccc12)OCc1c(Cl)cccc1Cl	inconclusive: 18.4 µM [cytotoxic, single point]	–
Cc1ccc(-c2nc3sc(C(N)=O)c(N)c3c3c2CCCC3)cc1	inconclusive: 29.1 µM [cytotoxic, single point]	–
COc1ccc(S(=O)(=O)NCc2cc(=O)n(C)c(=O)n2C)cc1F	inconclusive: 29.1 µM [rising, single point]	–
Cc1nc(Sc2ccc(Br)cc2)c(C#N)c(C)c1[N+](=O)[O-]	inconclusive: 29.1 µM [cytotoxic, single point]	–
Cc1ccccc1N(CC(=O)N/N=C/c1ccc(Cl)cc1)C(=O)c1ccccc1	active: 20.6 µM	–
CN(c1ccc(OCC(=O)OCC(=O)Nc2ccccc2)cc1)S(=O)(=O)c1ccc(F)cc1	inconclusive: 29.1 µM [rising, partial curve, poor fit]	–
CN(Cc1ccccc1)C(=O)C1CCC(CNS(=O)(=O)c2ccc3c(c2)CCCC(=O)N3)CC1 (centres undefined)	inactive	–
Cc1ccc2[nH]c3c(NCCN4CCOCC4)ncnc3c2c1	inconclusive: 16.4 µM [rising, single point]	–
CCCCNC(=O)C(NC(=O)c1ccc2ccccc2c1)C(=O)c1ccccc1 (centres undefined)	inconclusive: 3.26 µM [cytotoxic, partial curve, poor fit]	–
Cc1occc(=O)c1OCc1ccccc1	inactive	–
CC1(C)CC(=O)C2=C(C1)N1CCCCC1CC2=O (centres undefined)	inconclusive: 16.4 µM [rising, single point]	–
CCOCCCn1c(SC(C(=O)Nc2cc(C)ccc2C)c2ccccc2)nnc1-c1ccc(Cl)cc1 (centres undefined)	inconclusive: 13 µM [cytotoxic, partial curve]	–
CCc1nc2ccc(C(=O)Nc3cc(-c4ccccc4)ccc3OC)cn2c1N(CC)CCN(C)C	inconclusive: 29.1 µM [cytotoxic, single point]	–
CN(Cc1cccc(-n2cccn2)c1)Cc1cn(C)nc1-c1ccccc1F	inconclusive: 7.31 µM [cytotoxic, partial curve]	–
CCCCN1C[C@H](CSC)[C@@H](CC(=O)Nc2ccc(Br)cc2)C1=O	inconclusive: 9.2 µM [cytotoxic, partial curve]	–
Cc1ccc(SCC(=O)N(C)CC(=O)Nc2cccc(F)c2)c(C)c1	inconclusive: 29.1 µM [cytotoxic, single point]	–
O=C(NCC1CCCO1)c1cc2ccccc2nc1Cl (centres undefined)	inactive	–
Cc1cccc(-c2nc(CN3CCCC(C(=O)NC4CCCCCC4)C3)c(C)o2)c1 (centres undefined)	active: 20.6 µM	–

Random excerpt: 2 records from the list.
SMILES	Potency	activity change, negative = cytotoxicity
Cc1nc(Sc2ccc(Br)cc2)c(C#N)c(C)c1[N+](=O)[O-]	inconclusive: 29.1 µM [cytotoxic, single point]	–
Cc1ccc2[nH]c3c(NCCN4CCOCC4)ncnc3c2c1	inconclusive: 16.4 µM [rising, single point]	–
